Test results: publication PMC10630445, “RNA recognition by Npl3p reveals U2 snRNA-binding compatible with a chaperone role during splicing”
A weaker result is weaker than the reference pair of the same experiment. Where a protein sequence is shown, tags need not be part of it.

Amino acid sequences for entries named in this document (tags omitted). A change or cut given only in a name is not applied to a line headed by its entry.
UniProt Q01560: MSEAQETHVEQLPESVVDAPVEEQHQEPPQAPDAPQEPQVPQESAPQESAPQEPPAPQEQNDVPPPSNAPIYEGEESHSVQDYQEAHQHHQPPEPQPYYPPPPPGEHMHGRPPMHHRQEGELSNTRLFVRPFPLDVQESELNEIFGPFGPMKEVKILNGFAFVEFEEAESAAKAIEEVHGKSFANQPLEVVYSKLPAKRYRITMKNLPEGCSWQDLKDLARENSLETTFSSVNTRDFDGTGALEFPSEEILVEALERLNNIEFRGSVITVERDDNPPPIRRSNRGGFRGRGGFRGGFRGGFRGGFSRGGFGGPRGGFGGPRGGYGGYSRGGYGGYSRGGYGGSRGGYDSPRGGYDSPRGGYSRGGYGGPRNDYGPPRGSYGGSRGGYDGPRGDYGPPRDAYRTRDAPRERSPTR

Biological target: T1, Npl3 RRM1/2 F128A+F160A (Saccharomyces cerevisiae) (UniProt Q01560)
T1 sequence (looked up): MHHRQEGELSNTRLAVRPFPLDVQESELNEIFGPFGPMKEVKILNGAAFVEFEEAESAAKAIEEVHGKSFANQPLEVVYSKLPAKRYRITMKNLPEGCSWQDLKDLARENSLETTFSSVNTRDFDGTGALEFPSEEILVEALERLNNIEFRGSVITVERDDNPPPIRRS
Test: ITC
Conditions: ITC at 40 °C in NMR buffer: RRM1 and RRM1/2 25 mM Na2HPO4, 25 mM NaH2PO4 pH 6.9; RRM2 100 mM NaCl, 20 mM NaH2PO4 pH 5.5; recombinant protein; residues 114-282

## AUCCAGUGGAA [split-iCRAC consensus RNA]
  binding result: binds more weakly
